Numbering of substitutions follows the chain as printed. Names may count otherwise. Results are given in words; binding and its absence hold for the method and conditions named. In cells and extracts the contact can be indirect. Some results given as binding are weak or reduced against the parent protein; the word gives no strength.
Key:
Assay in all cases: co-IP; HeLa cells co-transfected with differentially tagged (FLAG and Myc) MYRF constructs; sonicated lysate incubated with FLAG antibody-coated beads for 2 h at 4°C; Sup and Bead fractions blotted
[1] = target: C-terminal fragment generated by the auto-processing of MYRF (from MYRF-6M and MYRF-3F) (human) (UniProt Q9Y2G1)
[2] = target: full-length MYRF, catalytic residue mutant K583A (human) (UniProt Q9Y2G1)
[3] = target: full-length MYRF, leucine zipper mutant L683A (human) (UniProt Q9Y2G1)

B1: C-terminal fragment generated by the auto-processing of MYRF (from MYRF-6M and MYRF-3F) (domain or fragment, UniProt Q9Y2G1-2 578-1111)
chain: SDLRAKEHVQEVDTTEQLKRISRMRLVHYRYKPEFAASAGIEATAPETGVIAQEVKEILPEAVKDTGDMVFANGKTIENFLVVNKERIFMENVGAVKELCKLTDNLETRIDELERWSHKLAKLRRLDSLKSTGSSGAFSHAGSQFSRAGSVPHKKRPPKVASKSSSVVPDQACISQRFLQGTIIALVVVMAFSVVSMSTLYVLSLRTEEDLVDTDGRSSQSFGTTQLRQSPLTTGLPGIQPSLLLVTTSLTSSAPGSAVRTLDMCSSHPCPVICCSSPTTNPTTGPSLGPSFNPGHVLSPSPSPSTNRSGPSQMALLPVTNIRAKSWGLSVNGIGHSKHHKSLEPLASPAVPFPGGQGKAKNSPSLGFHGRARRGALQSSVGPAEPTWAQGQSEPVPSLTSIQVLENSMSITSQYCAPGDACRPGNFTYHIPVSSGTPLHLSLTLQMNSSSPVSVVLCSLRSKEEPCEEGSLPQSLHTHQDTQGTSHRWPITILSFREFTYHFRVALLGQANCSSEALAQPATDYHFHFYRLCD
binding [1]: binds

B2: full-length MYRF, catalytic residue mutant K583A (protein, UniProt Q9Y2G1-2 1-1111)
chain: MHWLPAGHDINGALEPSNIDTSILEEYISKEDASDLCFPDISAPASSASYSHGQPAMPGSSGVHHLSPPGGGPSPGRHGPLPPPGYGTPLNCNNNNGMGAAPKPFPGGTGPPIKAEPKAPYAPGTLPDSPPDSGSEAYSPQQVNEPHLLRTITPETLCHVGVPSRLEHPPPPPAHLPGPPPPPPPPPHYPVLQRDLYMKAEPPIPHYAAMGQGLVPTDLHHTQQSQMLHQLLQQHGAELPTHPSKKRKHSESPPSTLNAQMLNGMIKQEPGTVTALPLHPTRAPSPPWPPQGPLSPGPGSLPLSIARVQTPPWHPPGAPSPGLLQDSDSLSGSYLDPNYQSIKWQPHQQNKWATLYDANYKELPMLTYRVDADKGFNFSVGDDAFVCQKKNHFQVTVYIGMLGEPKYVKTPEGLKPLDCFYLKLHGVKLEALNQSINIEQSQSDRSKRPFNPVTVNLPPEQVTKVTVGRLHFSETTANNMRKKGKPNPDQRYFMLVVALQAHAQNQNYTLAAQISERIIVRASNPGQFESDSDVLWQRAQVPDTVFHHGRVGINTDRPDEALVVHGNVKVMGSLMHPSDLRAAEHVQEVDTTEQLKRISRMRLVHYRYKPEFAASAGIEATAPETGVIAQEVKEILPEAVKDTGDMVFANGKTIENFLVVNKERIFMENVGAVKELCKLTDNLETRIDELERWSHKLAKLRRLDSLKSTGSSGAFSHAGSQFSRAGSVPHKKRPPKVASKSSSVVPDQACISQRFLQGTIIALVVVMAFSVVSMSTLYVLSLRTEEDLVDTDGRSSQSFGTTQLRQSPLTTGLPGIQPSLLLVTTSLTSSAPGSAVRTLDMCSSHPCPVICCSSPTTNPTTGPSLGPSFNPGHVLSPSPSPSTNRSGPSQMALLPVTNIRAKSWGLSVNGIGHSKHHKSLEPLASPAVPFPGGQGKAKNSPSLGFHGRARRGALQSSVGPAEPTWAQGQSEPVPSLTSIQVLENSMSITSQYCAPGDACRPGNFTYHIPVSSGTPLHLSLTLQMNSSSPVSVVLCSLRSKEEPCEEGSLPQSLHTHQDTQGTSHRWPITILSFREFTYHFRVALLGQANCSSEALAQPATDYHFHFYRLCD
binding [2]: binds

B3: full-length MYRF, leucine zipper mutant L683A (protein, UniProt Q9Y2G1-2 1-1111)
chain: B2 chain with A583K, L683A
binding [3]: binds
